These are yes or no findings as the source states them, for the method shown. In cells and extracts the contact can be indirect. Some entries that bind do so weakly or less than the wild type.

The chains behind the UniProt entries cited, without tags or fusion partners. Residues count along the entry.
UniProt Q9QUK6, residues 26-835: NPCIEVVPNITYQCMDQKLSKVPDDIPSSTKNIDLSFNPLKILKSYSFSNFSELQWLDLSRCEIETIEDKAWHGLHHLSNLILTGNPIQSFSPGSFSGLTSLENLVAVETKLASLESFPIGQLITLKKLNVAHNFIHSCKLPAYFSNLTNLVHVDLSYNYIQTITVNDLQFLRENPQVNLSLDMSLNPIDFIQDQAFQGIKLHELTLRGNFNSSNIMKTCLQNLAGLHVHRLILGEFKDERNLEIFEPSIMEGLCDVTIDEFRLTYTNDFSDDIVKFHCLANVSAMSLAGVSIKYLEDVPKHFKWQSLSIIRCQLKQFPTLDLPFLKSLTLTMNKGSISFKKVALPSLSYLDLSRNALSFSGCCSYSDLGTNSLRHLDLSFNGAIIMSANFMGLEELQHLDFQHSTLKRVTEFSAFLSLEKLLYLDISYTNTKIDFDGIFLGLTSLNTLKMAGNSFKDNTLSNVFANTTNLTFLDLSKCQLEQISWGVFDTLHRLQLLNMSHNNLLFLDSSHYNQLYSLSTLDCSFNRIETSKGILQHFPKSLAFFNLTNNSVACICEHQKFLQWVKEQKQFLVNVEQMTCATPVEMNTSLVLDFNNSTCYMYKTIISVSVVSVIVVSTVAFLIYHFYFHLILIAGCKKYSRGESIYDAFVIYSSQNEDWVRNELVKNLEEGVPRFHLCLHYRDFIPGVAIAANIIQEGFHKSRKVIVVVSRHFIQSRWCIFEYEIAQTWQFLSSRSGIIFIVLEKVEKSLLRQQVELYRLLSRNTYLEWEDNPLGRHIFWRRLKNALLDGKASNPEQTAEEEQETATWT

This assay deals with T1, Triggering receptor expressed on myeloid cells 2 (mouse (endogenous in RAW 264.7)) (UniProt Q99NH8).
T1 sequence: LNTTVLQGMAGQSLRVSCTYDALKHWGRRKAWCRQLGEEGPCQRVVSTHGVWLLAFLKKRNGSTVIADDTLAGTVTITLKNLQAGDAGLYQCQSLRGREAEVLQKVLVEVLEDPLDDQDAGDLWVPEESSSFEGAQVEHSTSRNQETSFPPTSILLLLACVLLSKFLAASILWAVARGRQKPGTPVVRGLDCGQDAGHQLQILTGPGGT
The experiment in a line: co-IP; endogenous; RAW 264.7 cell lysate (20 mM Tris pH 7.5, 150 mM NaCl, 1% Triton X-100) immunoprecipitated with Trem2 antibody or isotype control overnight, Protein A/G agarose beads 4 C 2 h; western blot for TLR4; cells with or without TgAg (5 ug/ml, 24 h). (In western blotting, separated proteins are transferred to a membrane and probed.)

As to “Toll-like receptor 4 (from UniProt Q9QUK6 26-835)”, the binding result was “binds”.

(Values after article PMC12502315.)
